PubChem BioAssay AID1224828 | NIAID – 2016
The whole screen tested about 17,000 reagents; below is a part drawn at random. 762 of them (4.5%) were called active. 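Active calls include both raised and lowered p65 entry, mostly lowered; wells with fewer than 50 cells lack a z-score.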 Raw values are not corrected between plates. The numbers tell different reagents against one gene apart.

Test: 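Find genes required for NF-kappaB p65 moving into the nucleus after LPS in mouse macrophages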 (primary screen)
Cell system: mouse RAW264.7 G9 macrophage reporter cells (GFP-p65, Tnf promoter-mCherry)
Reagents: siRNA pool against mouse genes, 100 nM
Time to read-out: 2 days siRNA transfection, then 40 min LPS before fixation
Treatment: LPS (Salmonella minnesota R595) at 10 ng/ml
Measurement: 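Imaged p65 nuclear translocation ratio, normalised to the plate median, converted to robust z-scores and averaged across two replicates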
Scale: p65 translocation robust z-score: higher = more nuclear NF-kappaB p65 after LPS than the plate median; nuclear/cytoplasmic p65 ratio: higher = more nuclear NF-kappaB p65
Call rule: 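Active if robust z is above 3.3 (negative regulators) or below -1.56, the Tlr4 control median (positive regulators); activity score 50 or more; control wells not called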
Meaning of the calls: active = hit (p65 shift raised or lowered); inactive = no clear change

| Gene | reagent no. | p65 translocation robust z-score | nuclear/cytoplasmic p65 ratio, rep 1 | nuclear/cytoplasmic p65 ratio, rep 2 | low cell count flag | outcome |
| --- | --- | --- | --- | --- | --- | --- |
| Ctps2 | 1 | 1.45 | 1.61 | 1.62 | enough cells to score | inactive |
| Sftpb | 1 | 0.33 | 1.53 | 1.67 | enough cells to score | inactive |
| Kif2a | 1 | 0.12 | 1.54 | 1.35 | enough cells to score | inactive |
| Zdhhc15 | 1 | 0.56 | 1.55 | 1.26 | enough cells to score | inactive |
| Sema6c | 1 | – | 1.78 | 1.27 | fewer than 50 cells per well; well left out of scoring | inactive |
| Dyrk3 | 1 | -1.08 | 1.58 | 1.2 | enough cells to score | inactive |
| Depdc7 | 1 | 1.59 | 1.47 | 1.81 | enough cells to score | inactive |
| Yipf4 | 1 | – | 1.49 | 1.23 | fewer than 50 cells per well; well left out of scoring | inactive |
| Tceanc2 | 1 | – | 1.36 | 1.25 | fewer than 50 cells per well; well left out of scoring | inactive |
| Tceanc2 | 2 | – | 1.2 | 1.31 | fewer than 50 cells per well; well left out of scoring | inactive |

Reformatted: results already given
{"Gene": "Depdc7", "reagent no.": 1, "p65 translocation robust z-score": 1.59, "nuclear/cytoplasmic p65 ratio, rep 1": 1.47, "nuclear/cytoplasmic p65 ratio, rep 2": 1.81, "low cell count flag": "enough cells to score", "outcome": "inactive"}
{"Gene": "Yipf4", "reagent no.": 1, "nuclear/cytoplasmic p65 ratio, rep 1": 1.49, "nuclear/cytoplasmic p65 ratio, rep 2": 1.23, "low cell count flag": "fewer than 50 cells per well; well left out of scoring", "outcome": "inactive"}
{"Gene": "Tceanc2", "reagent no.": 1, "nuclear/cytoplasmic p65 ratio, rep 1": 1.36, "nuclear/cytoplasmic p65 ratio, rep 2": 1.25, "low cell count flag": "fewer than 50 cells per well; well left out of scoring", "outcome": "inactive"}

The listing continues.
| Gene | reagent no. | p65 translocation robust z-score | nuclear/cytoplasmic p65 ratio, rep 1 | nuclear/cytoplasmic p65 ratio, rep 2 | low cell count flag | outcome |
| --- | --- | --- | --- | --- | --- | --- |
| Myo1f | 1 | 0.68 | 1.91 | 1.68 | enough cells to score | inactive |
| Tmem59l | 1 | – | 1.05 | 1.28 | fewer than 50 cells per well; well left out of scoring | inactive |
| Or5ar1 | 1 | -2.75 | 1.3 | 1.12 | enough cells to score | active |
| Inpp5a | 1 | -0.62 | 1.34 | 1.35 | enough cells to score | inactive |
| B3gnt9 | 1 | -0.02 | 1.58 | 1.79 | enough cells to score | inactive |
| Prelid3b | 1 | – | 1.24 | 1.28 | fewer than 50 cells per well; well left out of scoring | inactive |
| Rufy1 | 1 | 1.39 | 1.6 | 1.37 | enough cells to score | inactive |
| Nat9 | 1 | 1.09 | 1.66 | 1.59 | enough cells to score | inactive |
| Dgka | 1 | -0.11 | 1.65 | 1.39 | enough cells to score | inactive |
| Or10x4 | 1 | – | 1.17 | 1.54 | fewer than 50 cells per well; well left out of scoring | inactive |
| Cct8 | 1 | -0.28 | 1.36 | 1.34 | enough cells to score | inactive |
| Tmem167b | 1 | -2.36 | 1.06 | 1.17 | enough cells to score | active |
| Tbx6 | 1 | 0.54 | 1.56 | 1.63 | enough cells to score | inactive |
| Gstk1 | 1 | -0.84 | 1.54 | 1.4 | enough cells to score | inactive |
